Values from PubChem BioAssay AID1053208 (Peter MacCallum Cancer Centre, 2014)
Here is a random part of about 17,000 reagents. In the full data, 788 (4.7%) are marked active. 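Calls rest on z-score classes alone; an extra cut-off of viability at most 70% of control was not applied to them.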 A number with no mark means an inactive call. Further read-outs or replicates are left out here.

- Screen: 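Find knock-downs that sensitise mouse osteosarcoma cells to doxorubicin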 (primary screen)
- Cell system: mouse osteosarcoma cells, early-passage culture from an engineered mouse model of fibroblastic bone tumour
- Knock-down reagent: siRNA pool against mouse genes, 40 nM
- Timing: about 120 h (48 h before drug, then 72 h with drug)
- Conditions: doxorubicin 100 nM for 72 h, roughly 30-40% inhibitory dose
- Detection: 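Viability read as ATP luminescence after 72 h of 100 nM doxorubicin or none, duplicate wells averaged, scaled to non-targeting siRNA, then expressed as robust z-scores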
- Reading the numbers: viability z-score with doxorubicin: higher = more viable cells under doxorubicin; viability z-score without drug: higher = more viable cells with knock-down alone
- Call rule: 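Called active if knock-down leaves viability unchanged without drug (z within -2 to 2) but lowers it with doxorubicin (z at or under -2)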

| gene knocked down | combined z-score class | viability z-score with doxorubicin | viability z-score without drug |
| --- | --- | --- | --- |
| Cd55 | no change with or without drug | 0.67 | -1.18 |
| Scgb2b27 | no change with or without drug | -0.56 | -0.17 |
| Lipi | no change with or without drug | 1.24 | 0.51 |
| Gm56926 | high cell count with and without drug | 2.59 | 2.36 |
| Mmab | no change with or without drug | 0.45 | 0.84 |
| Cep85 | no change with or without drug | 0.79 | 0.51 |
| Mrpl54 | low cell count with and without drug | -4.16 | -3.37 |
| Mrpl23 | no change with or without drug | 0.67 | -0.51 |
| Tspyl5 | no change with or without drug | 0.67 | 1.01 |
| Tmem106b | no change with or without drug | 1.69 | 0.34 |
| Recql4 | no change with or without drug | -0.11 | -0.51 |
| Or5b116 | no change with or without drug | -0.45 | -0.17 |
| Or9r3 | no change with or without drug | -0.67 | -0.84 |
| Cpsf1 | no change with or without drug | -0.11 | 0.34 |
| 9430019C24Rik | no change with or without drug | -0.9 | -0.17 |
| Katna1 | no change with or without drug | -1.57 | 0.51 |
| Cox11 | no change with or without drug | -0.56 | 0.84 |
| Txnrd1 | no change with or without drug | -0.22 | 0 |
| Synpo2 | no change with or without drug | 1.12 | 0.84 |
| Cops6 | no change with or without drug | -0.22 | 0.51 |

Quoted from the listing, 3 entries:
| gene knocked down | combined z-score class | viability z-score with doxorubicin | viability z-score without drug |
| --- | --- | --- | --- |
| Cpsf1 | no change with or without drug | -0.11 | 0.34 |
| 9430019C24Rik | no change with or without drug | -0.9 | -0.17 |
| Katna1 | no change with or without drug | -1.57 | 0.51 |
